Measured values: the supplement of paper PMC10849652
Some of the results follow.

Sequences of proteins named here, by UniProt entry; tags and fusion partners are left off. A change or cut given only in a name is not applied to a line headed by its entry.
UniProt Q9P0B6: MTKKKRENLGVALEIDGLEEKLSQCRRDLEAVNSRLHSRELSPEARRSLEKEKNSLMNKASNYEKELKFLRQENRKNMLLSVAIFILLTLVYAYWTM
UniProt O95273: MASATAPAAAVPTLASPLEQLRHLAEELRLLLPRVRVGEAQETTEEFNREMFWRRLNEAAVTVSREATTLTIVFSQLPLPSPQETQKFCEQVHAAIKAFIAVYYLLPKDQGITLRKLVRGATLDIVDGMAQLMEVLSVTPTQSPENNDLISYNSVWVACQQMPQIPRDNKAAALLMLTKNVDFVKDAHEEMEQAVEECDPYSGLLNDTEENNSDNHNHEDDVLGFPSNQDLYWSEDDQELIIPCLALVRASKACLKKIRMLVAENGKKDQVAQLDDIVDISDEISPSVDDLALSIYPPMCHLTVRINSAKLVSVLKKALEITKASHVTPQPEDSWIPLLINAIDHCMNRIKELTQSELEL
UniProt O60508: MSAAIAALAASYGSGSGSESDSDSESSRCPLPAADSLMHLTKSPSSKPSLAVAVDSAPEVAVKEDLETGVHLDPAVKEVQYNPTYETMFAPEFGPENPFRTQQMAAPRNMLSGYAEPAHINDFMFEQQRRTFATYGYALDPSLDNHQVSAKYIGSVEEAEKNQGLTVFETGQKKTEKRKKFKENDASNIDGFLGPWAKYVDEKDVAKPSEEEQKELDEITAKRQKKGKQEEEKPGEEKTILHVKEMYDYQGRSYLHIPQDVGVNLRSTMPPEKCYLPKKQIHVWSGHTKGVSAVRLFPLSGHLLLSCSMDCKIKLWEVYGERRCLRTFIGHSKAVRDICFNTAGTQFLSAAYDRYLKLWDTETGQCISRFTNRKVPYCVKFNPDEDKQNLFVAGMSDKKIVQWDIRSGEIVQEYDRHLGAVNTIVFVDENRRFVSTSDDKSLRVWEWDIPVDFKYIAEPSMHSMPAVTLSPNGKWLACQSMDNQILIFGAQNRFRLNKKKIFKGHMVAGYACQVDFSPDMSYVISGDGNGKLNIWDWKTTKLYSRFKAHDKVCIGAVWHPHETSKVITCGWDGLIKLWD
UniProt P49589: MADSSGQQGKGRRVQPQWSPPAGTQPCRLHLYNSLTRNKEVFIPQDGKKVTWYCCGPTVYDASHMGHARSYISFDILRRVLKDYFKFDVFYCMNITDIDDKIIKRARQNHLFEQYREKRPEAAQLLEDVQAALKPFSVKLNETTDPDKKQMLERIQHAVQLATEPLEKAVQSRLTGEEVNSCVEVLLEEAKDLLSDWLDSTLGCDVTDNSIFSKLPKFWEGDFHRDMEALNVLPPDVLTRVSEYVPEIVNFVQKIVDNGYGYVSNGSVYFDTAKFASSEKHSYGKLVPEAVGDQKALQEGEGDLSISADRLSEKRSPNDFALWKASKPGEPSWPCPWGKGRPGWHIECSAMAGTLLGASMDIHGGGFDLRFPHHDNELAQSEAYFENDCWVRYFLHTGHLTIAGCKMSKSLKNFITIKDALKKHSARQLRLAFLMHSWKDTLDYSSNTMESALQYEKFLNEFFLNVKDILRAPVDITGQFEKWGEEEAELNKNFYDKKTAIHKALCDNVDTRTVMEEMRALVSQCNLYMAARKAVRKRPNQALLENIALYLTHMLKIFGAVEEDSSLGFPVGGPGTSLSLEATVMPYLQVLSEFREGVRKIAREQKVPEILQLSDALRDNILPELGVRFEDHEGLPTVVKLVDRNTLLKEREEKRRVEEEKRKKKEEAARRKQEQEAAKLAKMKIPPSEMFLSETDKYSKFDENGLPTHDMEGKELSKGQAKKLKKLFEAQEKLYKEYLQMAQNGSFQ
UniProt Q12834, whole entry, looked up: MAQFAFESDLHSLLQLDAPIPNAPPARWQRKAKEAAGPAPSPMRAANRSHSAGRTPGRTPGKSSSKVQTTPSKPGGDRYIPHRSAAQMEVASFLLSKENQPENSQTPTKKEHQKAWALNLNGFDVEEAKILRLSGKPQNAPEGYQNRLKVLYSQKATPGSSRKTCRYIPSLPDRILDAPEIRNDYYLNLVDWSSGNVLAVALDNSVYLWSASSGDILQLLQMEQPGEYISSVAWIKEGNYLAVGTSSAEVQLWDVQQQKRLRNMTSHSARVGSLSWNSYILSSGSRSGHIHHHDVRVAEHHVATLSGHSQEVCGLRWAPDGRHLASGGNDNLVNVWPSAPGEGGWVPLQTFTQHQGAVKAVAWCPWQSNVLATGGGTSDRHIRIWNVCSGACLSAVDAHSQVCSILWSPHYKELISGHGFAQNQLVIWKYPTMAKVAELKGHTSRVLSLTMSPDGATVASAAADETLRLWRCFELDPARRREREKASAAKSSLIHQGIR
UniProt Q7Z3E2: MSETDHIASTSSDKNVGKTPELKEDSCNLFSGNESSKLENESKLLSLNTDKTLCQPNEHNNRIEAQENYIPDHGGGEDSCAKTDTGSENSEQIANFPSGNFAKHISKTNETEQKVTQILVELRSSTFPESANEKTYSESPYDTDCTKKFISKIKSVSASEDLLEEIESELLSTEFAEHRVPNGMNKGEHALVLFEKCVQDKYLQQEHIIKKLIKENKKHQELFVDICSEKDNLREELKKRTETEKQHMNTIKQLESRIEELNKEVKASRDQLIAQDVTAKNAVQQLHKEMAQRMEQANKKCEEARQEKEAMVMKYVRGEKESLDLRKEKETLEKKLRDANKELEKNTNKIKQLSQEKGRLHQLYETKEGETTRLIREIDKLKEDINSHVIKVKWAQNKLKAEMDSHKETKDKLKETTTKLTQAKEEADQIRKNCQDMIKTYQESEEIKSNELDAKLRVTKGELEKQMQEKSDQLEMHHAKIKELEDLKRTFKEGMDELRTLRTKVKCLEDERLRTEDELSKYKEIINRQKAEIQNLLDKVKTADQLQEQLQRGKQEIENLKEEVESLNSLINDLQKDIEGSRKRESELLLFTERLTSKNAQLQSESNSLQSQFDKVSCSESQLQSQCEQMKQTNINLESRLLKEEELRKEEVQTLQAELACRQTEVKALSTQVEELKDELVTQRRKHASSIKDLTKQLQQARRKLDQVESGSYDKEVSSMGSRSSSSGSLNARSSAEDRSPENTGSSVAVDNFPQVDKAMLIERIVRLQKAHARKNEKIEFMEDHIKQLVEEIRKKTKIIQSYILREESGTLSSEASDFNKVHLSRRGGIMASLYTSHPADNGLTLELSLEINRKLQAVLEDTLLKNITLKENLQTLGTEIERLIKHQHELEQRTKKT
UniProt O95810: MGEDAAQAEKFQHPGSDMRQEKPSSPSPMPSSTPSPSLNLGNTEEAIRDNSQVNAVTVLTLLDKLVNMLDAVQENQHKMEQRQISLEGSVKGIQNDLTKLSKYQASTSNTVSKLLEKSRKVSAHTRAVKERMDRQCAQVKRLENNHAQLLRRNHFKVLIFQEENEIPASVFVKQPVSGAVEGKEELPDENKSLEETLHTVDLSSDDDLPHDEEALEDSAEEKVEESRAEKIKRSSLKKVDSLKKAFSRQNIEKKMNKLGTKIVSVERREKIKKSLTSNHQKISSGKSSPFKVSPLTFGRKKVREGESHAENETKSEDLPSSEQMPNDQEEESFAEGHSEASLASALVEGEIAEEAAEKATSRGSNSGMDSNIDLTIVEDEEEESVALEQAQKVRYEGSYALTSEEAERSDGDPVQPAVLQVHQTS
UniProt P14209: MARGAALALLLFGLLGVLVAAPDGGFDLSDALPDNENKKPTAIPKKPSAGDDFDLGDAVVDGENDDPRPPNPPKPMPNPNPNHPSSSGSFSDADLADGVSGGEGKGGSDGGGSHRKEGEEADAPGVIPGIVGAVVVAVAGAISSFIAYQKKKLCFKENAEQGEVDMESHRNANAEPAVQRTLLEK
UniProt Q9BSQ5: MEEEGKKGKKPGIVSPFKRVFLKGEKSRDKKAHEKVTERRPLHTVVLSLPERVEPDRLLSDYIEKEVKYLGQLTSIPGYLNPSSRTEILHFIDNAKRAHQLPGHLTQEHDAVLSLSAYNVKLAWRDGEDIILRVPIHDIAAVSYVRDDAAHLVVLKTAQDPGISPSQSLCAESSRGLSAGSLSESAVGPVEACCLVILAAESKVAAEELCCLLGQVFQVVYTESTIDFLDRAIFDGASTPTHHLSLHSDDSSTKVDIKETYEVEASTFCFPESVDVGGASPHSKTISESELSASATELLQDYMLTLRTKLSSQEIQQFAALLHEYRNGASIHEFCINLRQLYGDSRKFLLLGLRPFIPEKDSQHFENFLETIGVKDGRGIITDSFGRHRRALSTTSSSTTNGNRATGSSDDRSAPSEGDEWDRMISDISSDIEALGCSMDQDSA
UniProt P19256, whole entry, looked up: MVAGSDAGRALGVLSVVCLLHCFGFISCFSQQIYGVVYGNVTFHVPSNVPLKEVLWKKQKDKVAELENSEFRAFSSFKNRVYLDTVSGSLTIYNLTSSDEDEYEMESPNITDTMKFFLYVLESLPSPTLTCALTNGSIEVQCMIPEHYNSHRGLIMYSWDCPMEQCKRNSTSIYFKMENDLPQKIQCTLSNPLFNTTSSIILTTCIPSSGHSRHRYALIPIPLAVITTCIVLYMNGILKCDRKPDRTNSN
UniProt Q8NHZ8, whole entry, looked up: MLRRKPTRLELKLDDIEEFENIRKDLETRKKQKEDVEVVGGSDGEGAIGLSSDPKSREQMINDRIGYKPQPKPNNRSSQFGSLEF
UniProt Q6PK04: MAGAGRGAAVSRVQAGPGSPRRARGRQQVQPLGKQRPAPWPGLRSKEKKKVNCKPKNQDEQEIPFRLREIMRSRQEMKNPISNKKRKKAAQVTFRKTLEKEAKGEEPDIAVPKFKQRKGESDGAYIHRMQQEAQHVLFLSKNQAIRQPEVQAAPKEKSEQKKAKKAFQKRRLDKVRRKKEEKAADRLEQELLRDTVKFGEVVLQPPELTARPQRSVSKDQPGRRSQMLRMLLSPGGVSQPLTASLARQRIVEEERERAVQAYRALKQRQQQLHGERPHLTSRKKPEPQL
UniProt P30305: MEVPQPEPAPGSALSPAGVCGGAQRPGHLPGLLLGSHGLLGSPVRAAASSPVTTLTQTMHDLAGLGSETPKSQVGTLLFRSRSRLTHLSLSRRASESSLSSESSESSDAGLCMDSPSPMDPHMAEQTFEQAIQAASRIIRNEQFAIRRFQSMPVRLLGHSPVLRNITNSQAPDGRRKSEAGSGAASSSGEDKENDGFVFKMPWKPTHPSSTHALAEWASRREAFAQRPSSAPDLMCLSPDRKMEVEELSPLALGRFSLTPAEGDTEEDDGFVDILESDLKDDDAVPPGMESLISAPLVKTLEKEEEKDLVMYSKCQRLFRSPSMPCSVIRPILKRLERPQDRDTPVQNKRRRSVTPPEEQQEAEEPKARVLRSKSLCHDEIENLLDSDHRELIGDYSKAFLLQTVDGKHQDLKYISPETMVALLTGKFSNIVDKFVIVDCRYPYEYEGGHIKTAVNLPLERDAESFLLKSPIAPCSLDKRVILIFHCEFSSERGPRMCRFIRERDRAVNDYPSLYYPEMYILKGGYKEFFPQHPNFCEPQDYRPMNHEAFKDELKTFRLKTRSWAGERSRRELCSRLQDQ
UniProt Q14790: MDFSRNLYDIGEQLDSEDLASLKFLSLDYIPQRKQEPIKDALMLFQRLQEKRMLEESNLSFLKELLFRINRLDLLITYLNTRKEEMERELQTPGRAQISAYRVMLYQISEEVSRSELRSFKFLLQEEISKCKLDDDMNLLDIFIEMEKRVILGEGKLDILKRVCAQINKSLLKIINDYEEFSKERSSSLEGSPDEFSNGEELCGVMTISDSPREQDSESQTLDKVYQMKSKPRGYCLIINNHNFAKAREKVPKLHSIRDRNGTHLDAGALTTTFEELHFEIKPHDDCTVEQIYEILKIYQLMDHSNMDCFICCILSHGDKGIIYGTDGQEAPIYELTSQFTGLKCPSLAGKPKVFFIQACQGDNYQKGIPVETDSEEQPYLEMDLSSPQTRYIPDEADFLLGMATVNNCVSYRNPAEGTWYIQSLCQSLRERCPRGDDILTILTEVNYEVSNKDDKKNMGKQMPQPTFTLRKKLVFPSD
UniProt Q96ER9: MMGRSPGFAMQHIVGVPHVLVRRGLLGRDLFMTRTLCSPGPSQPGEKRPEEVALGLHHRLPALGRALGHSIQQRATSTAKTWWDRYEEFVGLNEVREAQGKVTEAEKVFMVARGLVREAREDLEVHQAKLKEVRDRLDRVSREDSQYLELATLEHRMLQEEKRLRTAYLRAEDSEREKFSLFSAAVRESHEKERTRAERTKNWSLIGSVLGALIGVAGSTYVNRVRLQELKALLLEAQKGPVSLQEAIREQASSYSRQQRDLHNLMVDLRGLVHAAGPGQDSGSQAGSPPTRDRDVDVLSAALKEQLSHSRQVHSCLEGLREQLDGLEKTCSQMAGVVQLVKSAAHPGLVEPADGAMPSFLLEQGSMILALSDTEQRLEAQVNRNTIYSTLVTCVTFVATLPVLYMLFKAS
UniProt Q96MW1: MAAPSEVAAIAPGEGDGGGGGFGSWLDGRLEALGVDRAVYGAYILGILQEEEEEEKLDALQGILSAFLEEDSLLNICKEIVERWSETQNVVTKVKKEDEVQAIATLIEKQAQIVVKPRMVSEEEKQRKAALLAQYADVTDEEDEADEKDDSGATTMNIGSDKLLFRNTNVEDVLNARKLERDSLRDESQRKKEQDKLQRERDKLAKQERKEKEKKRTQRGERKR

Legend:
Assay in all cases: log2 fold change, soluble protein after heating vs DMSO (PISA); higher = thermal stabilisation; K562 cells, 10 uM, 30 min; active = over 0.2 and 3.5 SD of the protein, either way, in both replicates (recomputed)
bafetinib = compound: Cc1ccc(NC(=O)c2ccc(CN3CC[C@H](N(C)C)C3)c(C(F)(F)F)c2)cc1Nc1nccc(-c2cncnc2)n1 [bafetinib]
Procedure, shortened: (§1)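 Soluble protein was quantified by TMTpro 16plex LC-MS/MS after channel sums were equalised. It was obtained as the supernatant after 21,000xg for 90 min from pooled aliquots of K562 cells (2×10^6 cells/mL, 10 μM compound, 30 min) heated for 3 min across 48°C-58°C and extracted in PBS with 0.5% NP-40 at 4°C. Thermal stability values are relative to control samples and come from duplicates. They are given as log2 fold changes.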

[1] = compound: Cc1cccc(CC(=O)N2CCc3c2ccc(-c2cn(C)c4ncnc(N)c24)c3F)n1
Procedure, shortened: as §1

nilotinib = compound: Cc1cn(-c2cc(NC(=O)c3ccc(C)c(Nc4nccc(-c5cccnc5)n4)c3)cc(C(F)(F)F)c2)cn1 [nilotinib]
Procedure, shortened: as §1

[2] = compound: Cc1nc(Nc2n[nH]c3c2CN(C(=O)N[C@H](CN(C)C)c2ccccc2)C3(C)C)c2sccc2n1
Procedure, shortened: as §1

dasatinib = compound: Cc1nc(Nc2ncc(C(=O)Nc3c(C)cccc3Cl)s2)cc(N2CCN(CCO)CC2)n1 [dasatinib]
Procedure, shortened: as §1

[3] = compound: Cc1ncc(-c2ccnc(Nc3ccc(S(C)(=O)=O)cc3)n2)n1C(C)C
Procedure, shortened: as §1

[4] = compound: Cn1cc(-c2ccc3c(c2)CCN3C(=O)Cc2cccc(C(F)(F)F)c2)c2c(N)ncnc21
Procedure, shortened: as §1

[5] = compound: Cn1cc(-c2ccc3nnc(C(F)(F)c4ccc5ncccc5c4)n3n2)cn1
Procedure, shortened: as §1

tipifarnib = compound: Cn1cncc1[C@@](N)(c1ccc(Cl)cc1)c1ccc2c(c1)c(-c1cccc(Cl)c1)cc(=O)n2C [tipifarnib]
Procedure, shortened: as §1

mubritinib = compound: FC(F)(F)c1ccc(/C=C/c2nc(COc3ccc(CCCCn4ccnn4)cc3)co2)cc1 [mubritinib]
Procedure, shortened: as §1

| Target | log2 fold change (bafetinib) | log2 fold change [1] | log2 fold change (nilotinib) | log2 fold change [2] | log2 fold change (dasatinib) | log2 fold change [3] | log2 fold change [4] | log2 fold change [5] | log2 fold change (tipifarnib) | log2 fold change (mubritinib) |
| --- | --- | --- | --- | --- | --- | --- | --- | --- | --- | --- |
| CCDC167 (UniProt Q9P0B6) | inactive: -0.024 | inactive: -0.057 | inactive: -0.03 | inactive: -0.035 | inactive: 0.193 | inactive: 0.026 | inactive: -0.185 | inactive: -0.018 | inactive: 0.142 | inactive: -0.043 |
| CCDC93 (UniProt Q567U6) | inactive: -0.034 | inactive: -0.006 | inactive: -0.078 | inactive: -0.033 | inactive: -0.201 | inactive: 0.057 | inactive: -0.076 | inactive: -0.077 | inactive: 0.022 | inactive: 0.05 |
| CCNDBP1 (UniProt O95273) | inactive: 0.059 | inactive: -0.017 | inactive: -0.19 | inactive: 0.028 | inactive: 0.023 | inactive: 0.21 | inactive: -0.055 | inactive: -0.197 | – | inactive: -0.045 |
| CDC40 (UniProt O60508) | inactive: 0.166 | inactive: -0.092 | inactive: 0.049 | inactive: 0.272 | inactive: 0.14 | inactive: 0.399 | inactive: -0.422 | – | inactive: 0.205 | inactive: -0.33 |
| CD82 (UniProt P27701) | inactive: -0.098 | inactive: -0.135 | inactive: -0.118 | inactive: -0.193 | – | inactive: -0.173 | – | inactive: -0.044 | – | inactive: 0.063 |
| CBFB isoform 2 (UniProt Q13951) | inactive: -0.089 | inactive: 0.094 | inactive: -0.021 | inactive: -0.039 | inactive: -0.044 | inactive: 0.021 | inactive: 0.067 | inactive: 0.072 | inactive: -0.046 | inactive: 0.029 |
| CARS isoform 3 (UniProt P49589) | inactive: -0.039 | inactive: 0.075 | inactive: -0.029 | inactive: 0.011 | inactive: 0.016 | inactive: -0.002 | inactive: 0 | inactive: 0.015 | inactive: -0.03 | inactive: 0.026 |
| CCDC117 (UniProt Q8IWD4) | inactive: -0.092 | inactive: -0.05 | inactive: -0.133 | inactive: -0.016 | inactive: -0.03 | inactive: -0.103 | inactive: -0.078 | inactive: -0.066 | inactive: -0.013 | inactive: 0.07 |
| CDC20 (UniProt Q12834) | inactive: 0.005 | inactive: 0.015 | – | – | inactive: -0.09 | – | inactive: 0.059 | inactive: -0.143 | inactive: -0.015 | inactive: 0.066 |
| CD69 (UniProt Q07108) | inactive: -0.018 | inactive: 0.055 | inactive: 0.115 | inactive: 0.023 | – | inactive: 0.157 | inactive: 0.232 | – | inactive: -0.027 | inactive: -0.014 |
| CCDC186 (UniProt Q7Z3E2) | inactive: -0.142 | inactive: -0.044 | inactive: 0.046 | inactive: 0.091 | inactive: -0.07 | inactive: 0.01 | – | – | – | inactive: -0.015 |
| CBR1 (UniProt P16152) | inactive: 0 | inactive: 0.011 | inactive: -0.012 | inactive: 0.003 | inactive: -0.02 | inactive: 0.022 | inactive: 0.081 | inactive: -0.031 | inactive: -0.044 | inactive: -0.01 |
| CAVIN2 (UniProt O95810) | inactive: 0.091 | inactive: 0.011 | inactive: 0.02 | inactive: 0.086 | inactive: 0.013 | inactive: -0.048 | inactive: -0.087 | inactive: -0.058 | inactive: 0.028 | inactive: -0.034 |
| CD99 (UniProt P14209) | inactive: -0.004 | inactive: -0.005 | inactive: 0.011 | inactive: -0.039 | – | inactive: -0.029 | inactive: 0.037 | – | inactive: 0.098 | inactive: 0.023 |
| CD164 (UniProt Q04900) | inactive: -0.167 | inactive: -0.268 | inactive: -0.196 | inactive: -0.013 | – | inactive: -0.143 | inactive: 0.024 | inactive: -0.174 | – | inactive: 0.164 |
| CCDC85C (UniProt A6NKD9) | inactive: 0 | inactive: -0.243 | – | – | inactive: 0.077 | – | inactive: -0.042 | inactive: 0.137 | inactive: 0.02 | inactive: 0.036 |
| CCM2 isoform 2 (UniProt Q9BSQ5) | inactive: -0.059 | inactive: -0.038 | – | – | inactive: -0.003 | – | inactive: 0.043 | inactive: -0.021 | inactive: -0.024 | inactive: -0.061 |
| CCNYL1 (UniProt Q8N7R7) | inactive: 0.184 | inactive: 0.043 | inactive: -0.132 | inactive: 0.04 | inactive: -0.021 | inactive: 0.05 | inactive: 0.099 | – | – | inactive: -0.156 |
| CCDC59 (UniProt Q9P031) | inactive: 0.117 | inactive: -0.041 | inactive: 0.032 | inactive: 0.048 | inactive: 0.037 | inactive: 0.028 | inactive: -0.277 | inactive: -0.13 | inactive: 0.09 | inactive: -0.056 |
| CCDC127 (UniProt Q96BQ5) | inactive: 0.024 | inactive: -0.028 | inactive: 0.058 | inactive: -0.035 | inactive: 0.031 | inactive: -0.026 | inactive: 0.027 | inactive: 0.041 | inactive: 0 | inactive: -0.019 |
| CD58 (UniProt P19256) | inactive: 0.047 | inactive: -0.005 | inactive: 0.057 | inactive: -0.053 | inactive: 0.026 | inactive: -0.041 | inactive: 0 | inactive: -0.028 | inactive: -0.031 | inactive: 0.034 |
| CDC26 (UniProt Q8NHZ8) | inactive: -0.034 | inactive: 0.162 | inactive: -0.011 | inactive: -0.059 | inactive: 0.143 | inactive: 0.029 | inactive: 0.179 | inactive: -0.027 | inactive: 0.131 | inactive: -0.028 |
| CCDC137 (UniProt Q6PK04) | inactive: 0.266 | inactive: -0.11 | inactive: -0.041 | inactive: 0.076 | inactive: 0.258 | inactive: 0 | inactive: -0.38 | inactive: -0.129 | – | inactive: -0.148 |
| CDC25B isoform 4 (UniProt P30305) | inactive: 0.081 | inactive: -0.022 | active: -0.513 | inactive: -0.051 | – | inactive: -0.206 | inactive: 0.095 | inactive: -0.03 | inactive: 0.022 | inactive: 0.074 |
| CCND3 (UniProt P30281) | inactive: 0.07 | inactive: -0.016 | – | – | inactive: -0.08 | – | inactive: 0.04 | inactive: 0.092 | inactive: 0.026 | inactive: 0.024 |
| CCDC88A (UniProt Q3V6T2) | inactive: 0.048 | inactive: -0.126 | inactive: -0.351 | inactive: 0.092 | inactive: -0.073 | inactive: -0.293 | inactive: -0.105 | inactive: -0.048 | inactive: -0.012 | inactive: -0.023 |
| CASP8 isoform 9 (UniProt Q14790) | inactive: 0.072 | inactive: 0.093 | inactive: -0.183 | inactive: 0.018 | inactive: -0.039 | inactive: 0.069 | – | inactive: -0.066 | inactive: -0.094 | inactive: -0.095 |
| CD53 (UniProt P19397) | inactive: 0.091 | active: -0.418 | inactive: 0.069 | inactive: 0.002 | inactive: 0.078 | inactive: -0.003 | inactive: 0.145 | inactive: 0.125 | inactive: 0.057 | inactive: 0.081 |
| CCDC51 (UniProt Q96ER9) | inactive: -0.156 | inactive: 0.112 | inactive: -0.006 | inactive: 0.003 | inactive: -0.048 | inactive: -0.041 | inactive: 0.042 | inactive: -0.005 | inactive: -0.075 | inactive: 0.016 |
| CCDC43 (UniProt Q96MW1) | inactive: -0.029 | inactive: 0.036 | inactive: -0.005 | inactive: -0.039 | inactive: 0.039 | inactive: -0.047 | inactive: 0.027 | inactive: 0.002 | inactive: -0.019 | inactive: 0.047 |

For reference, some entries already given:

| Target | log2 fold change (bafetinib) | log2 fold change [1] | log2 fold change (nilotinib) | log2 fold change [2] | log2 fold change (dasatinib) | log2 fold change [3] | log2 fold change [4] | log2 fold change [5] | log2 fold change (tipifarnib) | log2 fold change (mubritinib) |
| --- | --- | --- | --- | --- | --- | --- | --- | --- | --- | --- |
| CCDC51 (UniProt Q96ER9) | inactive: -0.156 | inactive: 0.112 | inactive: -0.006 | inactive: 0.003 | inactive: -0.048 | inactive: -0.041 | inactive: 0.042 | inactive: -0.005 | inactive: -0.075 | inactive: 0.016 |
| CCDC43 (UniProt Q96MW1) | inactive: -0.029 | inactive: 0.036 | inactive: -0.005 | inactive: -0.039 | inactive: 0.039 | inactive: -0.047 | inactive: 0.027 | inactive: 0.002 | inactive: -0.019 | inactive: 0.047 |
